This is one part of the list.
target: OsWRKY34 (Oryza sativa, UniProt Q0JBA9 1-250); experiment: protein-binding microarray (RPBM); PBS, 2% BSA, 51.3 ng/ul salmon testes DNA, 50 uM zinc acetate, 200 nM TF, 25 C, 1 h; high values mean tight binding; conditions: protein: recombinant; tags: N-terminal polyhistidine and DsRed monomer fusion (pET32a); label: CyDye5-dUTP incorporated in the synthesized complementary strand; 3' TTTTT single-stranded linker to array surface; dsDNA, one strand shown
Procedure, shortened: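 Binding signal is reported as fluorescence intensity per feature (arbitrary units) from an Axon 4000B scanner. Incubation used 200 nM of each Ni–NTA-purified, N-terminally polyhistidine- and DsRed-fused transcription factor from E. coli BL21-CodonPlus on a double-stranded custom Agilent array for 1 h at 25 °C, with 50 µM zinc acetate in the buffer, followed by washing.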

Chains of the proteins cited; added tags and fusions are not shown.
UniProt Q0JBA9, entry or part of it: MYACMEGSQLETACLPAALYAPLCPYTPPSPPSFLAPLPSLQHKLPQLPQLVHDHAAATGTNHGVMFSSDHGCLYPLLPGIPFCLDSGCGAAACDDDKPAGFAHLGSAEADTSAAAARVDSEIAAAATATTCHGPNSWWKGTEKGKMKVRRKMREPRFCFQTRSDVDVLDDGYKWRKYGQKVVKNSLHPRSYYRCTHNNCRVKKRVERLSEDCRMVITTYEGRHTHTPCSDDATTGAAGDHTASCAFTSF

Sequence	binding signal
TTGTCTCTTTGAGTTTTTGTCTATAACTTTTGATCATTCGCGGAGTCACCTAGTGCAG	8430 fluorescence intensity (a.u.)
TCTTGTTTTAATTAGCTTATCTTGTGTTCTAGTATAAAACCGGAGTCACCTAGTGCAG	10400 fluorescence intensity (a.u.)
CTAGTCGTTGTTTGTGCTTTACTCTTGTTTGTGTGATAGACGGAGTCACCTAGTGCAG	9880 fluorescence intensity (a.u.)
TTCTTTCCTTTTTCTTTTGTTATCGGTTACCACAGTGTCTCGGAGTCACCTAGTGCAG	9080 fluorescence intensity (a.u.)
GGGAGAGAGAGCCAACCGCGCACTACTTGTACTTCCTCATCGGAGTCACCTAGTGCAG	10500 fluorescence intensity (a.u.)
TTGCTAGGGGAGTGATTTTTCTTGGTGATTTCATATGATCCGGAGTCACCTAGTGCAG	8860 fluorescence intensity (a.u.)
CACATTTTCACGATGTCCCTCAGCTAATTACGTGTTTTTTCGGAGTCACCTAGTGCAG	13700 fluorescence intensity (a.u.)
TTTGTCAGCTCATGTCCTTTGCAATGTTTGTAAGTTTGTTCGGAGTCACCTAGTGCAG	8320 fluorescence intensity (a.u.)
TTGGGTATGTGGGGAAGTGGAATCCAAGGGTATGCTTTACCGGAGTCACCTAGTGCAG	8930 fluorescence intensity (a.u.)
AGTTCATCTCCATGCATTCCAGTAAAGACCATTTTTAGGACGGAGTCACCTAGTGCAG	8100 fluorescence intensity (a.u.)
ATTTCTTATTCTTGAGGCCACCTATCACGACTTTTATGTACGGAGTCACCTAGTGCAG	10100 fluorescence intensity (a.u.)
CGTCCCTGCCGTCCTGGTATACGGTGCATGCACGTACCCGCGGAGTCACCTAGTGCAG	8430 fluorescence intensity (a.u.)
ATTTGTATTTGTTTTTTGTTTGTTAGTATTAGGGTGCTTTCGGAGTCACCTAGTGCAG	9720 fluorescence intensity (a.u.)
GGTCCCACGTGTTATATGCGCATGTATCTTGAAGTTTTTGCGGAGTCACCTAGTGCAG	9190 fluorescence intensity (a.u.)
GGGTGAGCGGGGTGTGCTTGGTCGCGTCGCGTCGTGCCGTCGGAGTCACCTAGTGCAG	9110 fluorescence intensity (a.u.)
CCTTTTGCTCACCTTTAAACAGCCTCATTTTTTTCGTTTACGGAGTCACCTAGTGCAG	10800 fluorescence intensity (a.u.)
ACCACTCTACCACAACCATTACGCTATCCGCCACGAGCAACGGAGTCACCTAGTGCAG	8620 fluorescence intensity (a.u.)
TCCCGGGATTCAAGCATTCCGCCCAGCAAACGCACCAAACCGGAGTCACCTAGTGCAG	8670 fluorescence intensity (a.u.)
CATGGGCTGCAAGTGGGTTACGATCTCTTTTTTCCGGTGCCGGAGTCACCTAGTGCAG	9020 fluorescence intensity (a.u.)
TCTCCGTCATCCTCAACCTCGCCGCCGGTCATAGTGACGACGGAGTCACCTAGTGCAG	8640 fluorescence intensity (a.u.)
TGCGAATGTTCTCTTGTATTCATGCTTTTGACATGCTATTCGGAGTCACCTAGTGCAG	8340 fluorescence intensity (a.u.)

Some of the entries so far, as labelled records:
TTCTTTCCTTTTTCTTTTGTTATCGGTTACCACAGTGTCTCGGAGTCACCTAGTGCAG
  binding signal: 9080 fluorescence intensity (a.u.)
TTGCTAGGGGAGTGATTTTTCTTGGTGATTTCATATGATCCGGAGTCACCTAGTGCAG
  binding signal: 8860 fluorescence intensity (a.u.)
ATTTCTTATTCTTGAGGCCACCTATCACGACTTTTATGTACGGAGTCACCTAGTGCAG
  binding signal: 10100 fluorescence intensity (a.u.)
TGCGAATGTTCTCTTGTATTCATGCTTTTGACATGCTATTCGGAGTCACCTAGTGCAG
  binding signal: 8340 fluorescence intensity (a.u.)

Continued.

Sequence	binding signal
ATAGTGTTAATCTGGATCTCATGTTTTTATGCCTGACATTCGGAGTCACCTAGTGCAG	9050 fluorescence intensity (a.u.)
GAAGAGCATTAGGCTTGTATATGTTAGGTTTGATCTTTTTCGGAGTCACCTAGTGCAG	8410 fluorescence intensity (a.u.)
TCTATCATAATCCCTGTACTTTTCTTGTTCCTCCCTTTTTCGGAGTCACCTAGTGCAG	8340 fluorescence intensity (a.u.)
CTGGCGCTGGGGAGGGGATGGATGCGGCGGCCGGCAACTCCGGAGTCACCTAGTGCAG	10800 fluorescence intensity (a.u.)
ATCTCCATCACAGCATCCGACGACGACGCCGCCGCGGCGGCGGAGTCACCTAGTGCAG	8950 fluorescence intensity (a.u.)
AATTTGCATTCATACCCATATCCCTTTCTCACTTTCTCAGCGGAGTCACCTAGTGCAG	8750 fluorescence intensity (a.u.)
AACCGTAGCCATTCATCTATGATTTCCATTTTGACATTATCGGAGTCACCTAGTGCAG	8290 fluorescence intensity (a.u.)
CTGCACCTCTGCTTCAAATTTGGGTCACCGTTGTTTCTCCCGGAGTCACCTAGTGCAG	9110 fluorescence intensity (a.u.)
CGCCACCACCACCACCACCCACCCCTTCCCTTCTTCCATCCGGAGTCACCTAGTGCAG	9200 fluorescence intensity (a.u.)
CCGAGCACCCACCCGCCGCCGCCGCCGTCGCCGATTCATGCGGAGTCACCTAGTGCAG	9080 fluorescence intensity (a.u.)
CCCTTTTTCCACTTCTTTTTAAACTTTTTCTCACCTTTGACGGAGTCACCTAGTGCAG	9590 fluorescence intensity (a.u.)
ACACGCACGCGCCACACGCCGCCGCTCTCTGTCTCTGTCTCGGAGTCACCTAGTGCAG	9900 fluorescence intensity (a.u.)
GTTGCTACAGCATGTGAAATGTGATATGTTATGCTGCTGTCGGAGTCACCTAGTGCAG	9030 fluorescence intensity (a.u.)
CGCTACCGGGTTGACTTTTTCCTATCCGTTTCTGGTCCGGCGGAGTCACCTAGTGCAG	22800 fluorescence intensity (a.u.)
CAGCAGCATGACCCGTTCCTGGCCGCCTACGTGGCGTGCACGGAGTCACCTAGTGCAG	9620 fluorescence intensity (a.u.)
CAAACCGGATGTAAGGCGATTGATGTTCGAGGTGTTTGACCGGAGTCACCTAGTGCAG	10700 fluorescence intensity (a.u.)
CGCGAACCCAACCTTGCTCGATCGTACGTGTTGCCGTAGCCGGAGTCACCTAGTGCAG	9330 fluorescence intensity (a.u.)
TCTCGACTCTGGACCTCTCCTCTCCACGCCGACCGCCATGCGGAGTCACCTAGTGCAG	8500 fluorescence intensity (a.u.)
TCCGCCGTCATCGCATCCGTCGTCTCACCGCCACCGATTCCGGAGTCACCTAGTGCAG	10100 fluorescence intensity (a.u.)
GCTCATCACGGGCCAAGCCGCTGGTTTTTCTTCCCATTTTCGGAGTCACCTAGTGCAG	8080 fluorescence intensity (a.u.)
TATGGTTGGGGATGATTTTGTATCTTAGATGACAAGTTGACGGAGTCACCTAGTGCAG	11700 fluorescence intensity (a.u.)

Single entries from the entries so far.
Entry for TGCGAATGTTCTCTTGTATTCATGCTTTTGACATGCTATTCGGAGTCACCTAGTGCAG under binding signal: 8340 fluorescence intensity (a.u.)
Entry for CGTCCCTGCCGTCCTGGTATACGGTGCATGCACGTACCCGCGGAGTCACCTAGTGCAG under binding signal: 8430 fluorescence intensity (a.u.)

Going on with the list.

Sequence	binding signal
TCTACTGACATCGTTTAATTTTCTATTCTCGATTTTTTGACGGAGTCACCTAGTGCAG	8960 fluorescence intensity (a.u.)
TCTACCAACCCACCCGTGCTCTCTCCTGCCGTGCTCGTCGCGGAGTCACCTAGTGCAG	11500 fluorescence intensity (a.u.)
ATCATGACCACAACTGCTGCTGCTGCTACCATCCAAATGTCGGAGTCACCTAGTGCAG	10200 fluorescence intensity (a.u.)
GATTGTTTTATCGTTCATAGTACTTTAAGTGTAATTTATACGGAGTCACCTAGTGCAG	10300 fluorescence intensity (a.u.)
TGAACCTTGGAAAATCACATCGTTGTCTGCTTTCTCATCACGGAGTCACCTAGTGCAG	8070 fluorescence intensity (a.u.)
TTTTCTGGGCACATGTTCGTTGTTGTTATCGTCACGTATCCGGAGTCACCTAGTGCAG	11500 fluorescence intensity (a.u.)
CAGCAAGAGCTATAACATCCATCCATCCATCTATTCGCTTCGGAGTCACCTAGTGCAG	9610 fluorescence intensity (a.u.)
CAACTATCCCATAACCACTGTAGCAGGTCAAATTCAATTACGGAGTCACCTAGTGCAG	10100 fluorescence intensity (a.u.)
CTCTTGACCAGCCGAGCGCACCGTCATCAGGCTACATCTCCGGAGTCACCTAGTGCAG	8280 fluorescence intensity (a.u.)
GATTCGTAAATTGAAGTGTGTCGTAAGTTCTGTTGAGTTCCGGAGTCACCTAGTGCAG	8580 fluorescence intensity (a.u.)
CGTCGCTTGCCCCGACGACCACCGTGTCCGCGCTCGCCTTCGGAGTCACCTAGTGCAG	8530 fluorescence intensity (a.u.)
AGTAGTATCATCTCTCTCTGTCTGTATCTTCACCTGTATCCGGAGTCACCTAGTGCAG	8150 fluorescence intensity (a.u.)
TAATTAACTCACGACGACTCGTTCATTATTGCCGTTTACTCGGAGTCACCTAGTGCAG	8320 fluorescence intensity (a.u.)
TACGTCGTATTATATCCTGAACATCGATCGCTATTGACGACGGAGTCACCTAGTGCAG	10100 fluorescence intensity (a.u.)
AACCTTGAAATTTGAAGTATAACACTGCCATCATTTGCTTCGGAGTCACCTAGTGCAG	8960 fluorescence intensity (a.u.)
CGTTAGGTTTTGAAGCTGGGAGGGGCGGAGGGCAGCGATTCGGAGTCACCTAGTGCAG	12500 fluorescence intensity (a.u.)
GTTGCTTTTGCTGGAGTAGTACTTCTATTTATCTTCAAACCGGAGTCACCTAGTGCAG	9100 fluorescence intensity (a.u.)
GATATATTCCCTTGCAACTAGGGGTGAAAATGGGGCGGGTCGGAGTCACCTAGTGCAG	12600 fluorescence intensity (a.u.)
TCGTCGTTCTTGGCGCCACCACATCGCGGGAGATGAGCCACGGAGTCACCTAGTGCAG	8210 fluorescence intensity (a.u.)
CCCTTATTCGTTTGTTTTCCATAGTACCTACATTTTTTCACGGAGTCACCTAGTGCAG	12200 fluorescence intensity (a.u.)
CCGGCGACCTCCCCACCCACCGCCCGGCCCGCCCAGCCTGCGGAGTCACCTAGTGCAG	8030 fluorescence intensity (a.u.)

Sequence	binding signal
ATCTCCGCCCGGTCGCGCCGCCGGTGGGGTGGGGAATTCGCGGAGTCACCTAGTGCAG	14900 fluorescence intensity (a.u.)
TATGTCACATTTTCACTTTCTGTACTATGTAATACTATATCGGAGTCACCTAGTGCAG	10500 fluorescence intensity (a.u.)
GAGGACCTCTCTACTCTTCACCTCGCCGGTCAAGCGATTCCGGAGTCACCTAGTGCAG	10500 fluorescence intensity (a.u.)
AATTCCAGCCGAATTCTCCATGTCTTCTATTTCACCATACCGGAGTCACCTAGTGCAG	9560 fluorescence intensity (a.u.)
AACTTGCATGCTACCTTGAAACGATCAGAGTCCTAATTGCCGGAGTCACCTAGTGCAG	8150 fluorescence intensity (a.u.)
TACTTAATCTGTTGTTATCCAGCTATCTTACACGTTATTTCGGAGTCACCTAGTGCAG	9510 fluorescence intensity (a.u.)
AGGAGCGCATATTACTTTTGAATTTGAAAGTTTTTTTTCCCGGAGTCACCTAGTGCAG	8500 fluorescence intensity (a.u.)
GTACTCTCCATCCGCCGCCGCCGCTTGGTACTAGATTTGTCGGAGTCACCTAGTGCAG	12700 fluorescence intensity (a.u.)
CCAAATCTTACCCTTTCACTAGCTCTCTCTGTTCTCATCCCGGAGTCACCTAGTGCAG	11800 fluorescence intensity (a.u.)
TGTTGGGTTGGGTTGGGTTGGGTTGGGTCCGTCCGATGAACGGAGTCACCTAGTGCAG	24200 fluorescence intensity (a.u.)
ACTTTATCCTCTCCCACGTCGCCAGCGTTCCCTTGTTGCTCGGAGTCACCTAGTGCAG	11000 fluorescence intensity (a.u.)
CCGACTGCTCAATCACCACCGGTCTGACCGGCTACCAGAGCGGAGTCACCTAGTGCAG	17200 fluorescence intensity (a.u.)
GTGAAAATATGTCCATTTCACCAACCTTTTGTCCCAAATCCGGAGTCACCTAGTGCAG	9320 fluorescence intensity (a.u.)
ATTCTGCAACATTGACTAGACTCTTCTATATTGTTAATCTCGGAGTCACCTAGTGCAG	8290 fluorescence intensity (a.u.)
TTGAGCTAGTACTAACATTTTTGTGTCGCGTTGGTTTAGTCGGAGTCACCTAGTGCAG	10900 fluorescence intensity (a.u.)
GTCACATTATATACGTATTTCTTCTCTTGGTACCATTTGACGGAGTCACCTAGTGCAG	12300 fluorescence intensity (a.u.)
AGACACCAACTCCACCGCATCCTACCAAGCCGCTGCCATGCGGAGTCACCTAGTGCAG	8190 fluorescence intensity (a.u.)
CTGCCGTCTCGCTTCGCCGACCTCCTCCCCACCAGCCGGCCGGAGTCACCTAGTGCAG	8900 fluorescence intensity (a.u.)
TCCTCACCCTCTCGCCACGTCTGCTTCGATCCCTTCTCCTCGGAGTCACCTAGTGCAG	9160 fluorescence intensity (a.u.)
GTGTCGCCAGTGATTGCAGTTTCAGTTCGAAATTTCTCTACGGAGTCACCTAGTGCAG	9610 fluorescence intensity (a.u.)
CCGCATCCTTCTTGGACTTCTGTTTTGTTGTTGGCCATGGCGGAGTCACCTAGTGCAG	11100 fluorescence intensity (a.u.)
